Measured values reported in paper doi:10.1101/2024.03.28.586926.
Where two headings read alike, the source gives them in different places. These are yes or no findings as the source states them, for the method shown. In cells and extracts the contact can be indirect. Some results given as binding are weak or reduced against the parent protein; the word gives no strength. For some assays here: Sequences can lack the tags named with a protein. One block for each molecule: values may come before it.

Protein sequences, listed by entry. Tags and fused reporters are not part of them.
UniProt Q13309: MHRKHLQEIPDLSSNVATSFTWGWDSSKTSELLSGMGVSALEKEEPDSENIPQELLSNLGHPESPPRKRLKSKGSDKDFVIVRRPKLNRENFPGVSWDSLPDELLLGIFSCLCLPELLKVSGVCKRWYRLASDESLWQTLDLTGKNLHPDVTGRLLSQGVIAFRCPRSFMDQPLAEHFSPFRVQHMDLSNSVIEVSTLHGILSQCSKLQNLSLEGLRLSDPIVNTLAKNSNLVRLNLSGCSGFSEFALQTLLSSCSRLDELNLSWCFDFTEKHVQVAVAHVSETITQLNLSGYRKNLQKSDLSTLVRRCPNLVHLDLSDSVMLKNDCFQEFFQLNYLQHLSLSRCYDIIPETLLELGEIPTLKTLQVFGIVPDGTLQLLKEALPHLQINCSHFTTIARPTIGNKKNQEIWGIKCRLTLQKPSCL
UniProt Q13616: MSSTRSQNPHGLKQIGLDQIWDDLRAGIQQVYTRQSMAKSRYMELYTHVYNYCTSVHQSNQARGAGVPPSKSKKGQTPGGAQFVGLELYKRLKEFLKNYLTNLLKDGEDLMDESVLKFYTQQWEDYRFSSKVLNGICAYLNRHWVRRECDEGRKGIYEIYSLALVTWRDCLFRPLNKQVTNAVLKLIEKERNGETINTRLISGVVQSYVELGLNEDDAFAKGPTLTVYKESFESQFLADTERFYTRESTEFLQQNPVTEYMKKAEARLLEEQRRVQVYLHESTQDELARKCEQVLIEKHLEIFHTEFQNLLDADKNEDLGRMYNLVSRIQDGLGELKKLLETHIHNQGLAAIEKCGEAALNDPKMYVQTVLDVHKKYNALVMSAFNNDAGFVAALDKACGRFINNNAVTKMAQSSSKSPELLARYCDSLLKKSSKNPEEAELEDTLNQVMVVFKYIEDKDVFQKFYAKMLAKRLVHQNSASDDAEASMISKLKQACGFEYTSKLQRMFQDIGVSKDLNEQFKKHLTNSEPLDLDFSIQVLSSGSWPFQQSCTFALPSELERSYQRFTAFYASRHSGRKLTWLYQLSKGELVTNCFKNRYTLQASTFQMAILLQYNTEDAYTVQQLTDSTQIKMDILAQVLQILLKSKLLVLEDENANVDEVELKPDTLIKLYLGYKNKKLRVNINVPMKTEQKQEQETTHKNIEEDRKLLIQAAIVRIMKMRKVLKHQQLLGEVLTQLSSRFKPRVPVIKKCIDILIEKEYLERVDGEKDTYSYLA

Key:
Test in all cases: co-IP
[1] = target: T1, FBXO2, endogenous (human (endogenous in HEK293, Hep3B, HCC-LM3)) (UniProt Q9UK22)
T1 sequence: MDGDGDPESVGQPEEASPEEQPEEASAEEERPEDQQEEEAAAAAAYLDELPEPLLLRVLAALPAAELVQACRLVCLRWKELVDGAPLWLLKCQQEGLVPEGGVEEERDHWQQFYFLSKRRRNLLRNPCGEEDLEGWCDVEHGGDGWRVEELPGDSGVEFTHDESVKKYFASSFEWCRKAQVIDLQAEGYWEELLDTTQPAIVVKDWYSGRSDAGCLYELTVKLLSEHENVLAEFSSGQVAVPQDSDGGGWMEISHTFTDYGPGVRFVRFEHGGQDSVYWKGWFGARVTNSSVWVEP

[2] = target: T2, Flag-tagged Hsp47 (human) (UniProt P50454)
T2 sequence: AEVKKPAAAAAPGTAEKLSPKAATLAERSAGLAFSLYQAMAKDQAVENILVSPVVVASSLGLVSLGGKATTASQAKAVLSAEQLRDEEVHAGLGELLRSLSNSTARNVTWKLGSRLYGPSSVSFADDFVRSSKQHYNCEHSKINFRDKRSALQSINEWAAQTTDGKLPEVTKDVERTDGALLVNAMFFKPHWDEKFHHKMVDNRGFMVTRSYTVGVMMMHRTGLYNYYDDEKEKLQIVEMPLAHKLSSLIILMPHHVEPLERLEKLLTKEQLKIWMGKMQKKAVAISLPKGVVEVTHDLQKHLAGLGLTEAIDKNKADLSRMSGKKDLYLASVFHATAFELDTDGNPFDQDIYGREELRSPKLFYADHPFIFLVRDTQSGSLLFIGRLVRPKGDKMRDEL

Flag-tagged SKP2 = Flag-tagged SKP2 (UniProt Q13309)
[3] = target: T1, FBXO2, endogenous (human (endogenous in HEK293, Hep3B, HCC-LM3)); remark: listed apart in the source
Flag-FBXO2 Y278A (human) = target: T3, Flag-FBXO2 Y278A (human) (UniProt Q9UK22)
T3 sequence: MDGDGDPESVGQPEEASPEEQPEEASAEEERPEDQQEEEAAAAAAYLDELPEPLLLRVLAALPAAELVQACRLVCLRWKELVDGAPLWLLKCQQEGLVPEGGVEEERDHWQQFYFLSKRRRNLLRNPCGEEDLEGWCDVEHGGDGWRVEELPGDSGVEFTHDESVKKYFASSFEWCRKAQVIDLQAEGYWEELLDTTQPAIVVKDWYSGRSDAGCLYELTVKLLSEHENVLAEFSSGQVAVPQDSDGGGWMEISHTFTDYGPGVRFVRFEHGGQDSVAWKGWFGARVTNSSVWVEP

Flag-FBXO2 W279A (human) = target: T4, Flag-FBXO2 W279A (human) (UniProt Q9UK22)
T4 sequence: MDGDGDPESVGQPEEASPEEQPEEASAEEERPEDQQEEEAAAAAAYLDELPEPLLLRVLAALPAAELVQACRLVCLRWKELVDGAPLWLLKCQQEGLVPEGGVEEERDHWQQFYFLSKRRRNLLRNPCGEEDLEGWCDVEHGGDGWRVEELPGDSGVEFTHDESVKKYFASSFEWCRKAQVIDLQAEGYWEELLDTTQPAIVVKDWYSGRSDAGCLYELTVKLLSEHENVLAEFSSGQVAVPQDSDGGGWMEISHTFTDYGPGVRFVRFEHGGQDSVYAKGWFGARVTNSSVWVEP

Flag-CUL1 = Flag-CUL1 (UniProt Q13616)
[4] = target: T5, Flag-tagged FBXO2 (wild type) (human) (UniProt Q9UK22)
T5 sequence: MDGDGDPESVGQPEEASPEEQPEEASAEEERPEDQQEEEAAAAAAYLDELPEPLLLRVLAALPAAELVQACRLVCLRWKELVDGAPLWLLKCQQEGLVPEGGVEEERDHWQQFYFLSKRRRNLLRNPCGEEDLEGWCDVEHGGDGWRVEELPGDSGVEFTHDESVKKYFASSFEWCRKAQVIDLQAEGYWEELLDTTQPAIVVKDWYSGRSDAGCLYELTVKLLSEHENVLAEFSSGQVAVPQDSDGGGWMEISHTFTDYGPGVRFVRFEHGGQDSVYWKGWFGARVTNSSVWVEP

- binding [1]: no binding
Molecule: EGFR, endogenous (from UniProt P00533 25-1210) (receptor)

- binding [2]: binds
- binding (Flag-tagged SKP2): binds
B1: FBXO2, endogenous (protein, UniProt Q9UK22 1-296)
chain: MDGDGDPESVGQPEEASPEEQPEEASAEEERPEDQQEEEAAAAAAYLDELPEPLLLRVLAALPAAELVQACRLVCLRWKELVDGAPLWLLKCQQEGLVPEGGVEEERDHWQQFYFLSKRRRNLLRNPCGEEDLEGWCDVEHGGDGWRVEELPGDSGVEFTHDESVKKYFASSFEWCRKAQVIDLQAEGYWEELLDTTQPAIVVKDWYSGRSDAGCLYELTVKLLSEHENVLAEFSSGQVAVPQDSDGGGWMEISHTFTDYGPGVRFVRFEHGGQDSVYWKGWFGARVTNSSVWVEP

- binding [3]: binds
- binding (Flag-FBXO2 Y278A (human)): no binding
- binding (Flag-FBXO2 W279A (human)): no binding
- binding (Flag-CUL1): binds
- binding [4]: binds
B2: heat shock protein 47 (Hsp47), endogenous (protein, UniProt P50454 19-418)
chain: AEVKKPAAAAAPGTAEKLSPKAATLAERSAGLAFSLYQAMAKDQAVENILVSPVVVASSLGLVSLGGKATTASQAKAVLSAEQLRDEEVHAGLGELLRSLSNSTARNVTWKLGSRLYGPSSVSFADDFVRSSKQHYNCEHSKINFRDKRSALQSINEWAAQTTDGKLPEVTKDVERTDGALLVNAMFFKPHWDEKFHHKMVDNRGFMVTRSYTVGVMMMHRTGLYNYYDDEKEKLQIVEMPLAHKLSSLIILMPHHVEPLERLEKLLTKEQLKIWMGKMQKKAVAISLPKGVVEVTHDLQKHLAGLGLTEAIDKNKADLSRMSGKKDLYLASVFHATAFELDTDGNPFDQDIYGREELRSPKLFYADHPFIFLVRDTQSGSLLFIGRLVRPKGDKMRDEL
